In PubChem BioAssay AID1347426 (Functional Genomics Laboratory (NCATS/FGL), 2020):
The whole screen tested about 31,000 sequences, of which about 1,400 (4.5%) were called active.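 The calls were made as follows: active = median seed-adjusted z-score above 1 or below -1; inactive = the rest.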 The list shows a part of the results.

test: Novel Modifiers of Survival Motor Neuron (SMN) Protein: Gene Identification via Genome-wide siRNA Screen; conditions: HEK293T SMN2-luciferase reporter, siRNA knockdown, 72 h; actives lie on both sides;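 also: luminescence tracks full-length SMN protein made from the SMN2 reporter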
Procedure, shortened: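 siRNA screen, 10418 genes ×3 siRNAs; 1 pmol/well, lipid reverse transfection into HEK293T SMN2-luc reporter line. 72 h, 37 °C, 5% CO2; ONE-Glo readout. Data: neg-ctrl normalized, log10, MAD; hit = MAD >1.0 or < -1.0.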

| Sequence | median seed-adjusted z-score |
| --- | --- |
| CAUCGUCUCUGGGUAUAUUTT against PRIM1 | inactive: -0.23 |
| GCAGCAAUCCUGUUUGGAUTT against SLC2A11 | inactive: 0 |
| CAAAAUACAGAGUUUCUUUTT against RILP | inactive: 0.503 |
| ACAUACUUCCGGCAGAACATT against ATP6V1G1 | inactive: 0.311 |
| GGAGGUACCCAUUCCAGAATT against E2F5 | inactive: -0.628 |
| GAGCAAGGGCUGUAUCGAATT against ARHGAP26 | inactive: 0.34 |
| GGUGUUUGAUUGUGAGAAUTT against UBE2G1 | inactive: 0.174 |
| CGCCUACAACCUCAACUAUTT against LCT | inactive: 0.411 |
| GGAAGACAUUUACCGACCATT against BCAT2 | inactive: 0.0438 |
| CUCCAGUGCUUGAAUAUCATT against KLK5 | inactive: 0 |
| CGGUUAGAUUUGGACAGUATT against ARHGAP9 | inactive: 0 |
| GUACCACUGUAAGAAGAAATT against LBR | inactive: 0.303 |
| GGAUCCCAGUGAAACGAAATT against IDI2 | inactive: 0.578 |
| GAGGUGAUCUUAGACCUGATT against QSOX2 | inactive: 0.498 |
| GGAUUUUCUUCCUAAACAATT against SOX21 | inactive: -0.412 |
| GGACAACCAAGUUUGGAAATT against FCRLA | inactive: 0.03 |
| GAAUCUGCGCUACUAUGUATT against RASA2 | inactive: -0.913 |
| GGAACACCCGUUUAACAAATT against ASH2L | inactive: -0.464 |
| CGCACAACGUGGAUAGGAATT against TGM7 | inactive: 0.244 |
| GCAUCGCAGUGCUAAACAUTT against DGKA | active: -1.36 |
| UGAUGCUUCUGCGAGAUUATT against METTL2A | inactive: -0.49 |
| GGGUGGUGGUUAUAAUACUTT against XK | inactive: 0.403 |
| GGGAAAUACGGAGUACUUUTT against SLC35D2 | inactive: -0.127 |

| Sequence | median seed-adjusted z-score |
| --- | --- |
| GGAGCAGCUUCGUACAUAUTT against DUSP19 | inactive: 0.343 |
| GGAUGAAAUAAUCCUAAUATT against SNX25 | inactive: -0.26 |
| GCACGUCUUCUGUCCAUUUTT against EFCAB6 | inactive: 0.206 |
| GCACUUCUCUUAAGGACGATT against UNC13B | inactive: -0.0216 |
| GAACGUACCAGGGACUUAATT against TNC | inactive: -0.253 |
| UGAAGAAUGCAGUUAAAUATT against CCL17 | inactive: 0.178 |
| CUACGAAUUUACUAUACUATT against ITPR1 | inactive: -0.0888 |
| GCUUAAGACGGGACAUGAATT against DHRS9 | inactive: -0.0523 |
| AGGACUGCAUUGUUUUCUATT against RHOC | inactive: -0.579 |
| AGUACAUCGUGGUCCAAGATT against SRGAP2 | inactive: 0.0323 |
| GGACUAUGUCUGCCUAUGATT against SCN7A | inactive: 0 |
| GAAGCGAAAUUAGUGCGGATT against C1QBP | inactive: 0.754 |
| UUACAUUGAUUACACUGGATT against RBM24 | inactive: 0.0471 |
| GCCGUAGAGAAGGAGCUGATT against DNASE1L1 | inactive: 0.542 |
| GACUCGCACUAUUCGCAGATT against BRF2 | inactive: -0.00969 |
| GCAGGUGUUUCAUGAAGAATT against PRPH2 | inactive: 0.0931 |
| GCUGACCAUUGGGACAGUATT against EZH2 | inactive: 0.313 |
| CCAUCUCCAUGGACCUGCATT against AP1B1 | inactive: -0.161 |
| CCGAGAAUCAAGAACUUAATT against ZCCHC8 | inactive: 0.356 |
| CCCUGCACGGCUACAUUGATT against LHX6 | inactive: -0.717 |
| GAACGAAUACGAAUGGACATT against MXI1 | inactive: 0.348 |
| CAGUCUGGGUGUAAUCGUATT against ZEB1 | inactive: -0.163 |
| GGAUAUAUGGAGGUGAUAATT against SLC6A6 | inactive: 0.0448 |

18 neighbouring entries out of the list so far:

| Sequence | median seed-adjusted z-score |
| --- | --- |
| UGAAGAAUGCAGUUAAAUATT against CCL17 | inactive: 0.178 |
| CUACGAAUUUACUAUACUATT against ITPR1 | inactive: -0.0888 |
| GCUUAAGACGGGACAUGAATT against DHRS9 | inactive: -0.0523 |
| AGGACUGCAUUGUUUUCUATT against RHOC | inactive: -0.579 |
| AGUACAUCGUGGUCCAAGATT against SRGAP2 | inactive: 0.0323 |
| GGACUAUGUCUGCCUAUGATT against SCN7A | inactive: 0 |
| GAAGCGAAAUUAGUGCGGATT against C1QBP | inactive: 0.754 |
| UUACAUUGAUUACACUGGATT against RBM24 | inactive: 0.0471 |
| GCCGUAGAGAAGGAGCUGATT against DNASE1L1 | inactive: 0.542 |
| GACUCGCACUAUUCGCAGATT against BRF2 | inactive: -0.00969 |
| GCAGGUGUUUCAUGAAGAATT against PRPH2 | inactive: 0.0931 |
| GCUGACCAUUGGGACAGUATT against EZH2 | inactive: 0.313 |
| CCAUCUCCAUGGACCUGCATT against AP1B1 | inactive: -0.161 |
| CCGAGAAUCAAGAACUUAATT against ZCCHC8 | inactive: 0.356 |
| CCCUGCACGGCUACAUUGATT against LHX6 | inactive: -0.717 |
| GAACGAAUACGAAUGGACATT against MXI1 | inactive: 0.348 |
| CAGUCUGGGUGUAAUCGUATT against ZEB1 | inactive: -0.163 |
| GGAUAUAUGGAGGUGAUAATT against SLC6A6 | inactive: 0.0448 |

(next part)

| Sequence | median seed-adjusted z-score |
| --- | --- |
| CGCUCGAAAUUACACGGUATT against ADAM12 | inactive: -0.343 |
| GCACCAACCUGACCUGUCATT against CD33 | inactive: -0.355 |
| CACUGGAUGAAUUAGAUCATT against BUD31 | inactive: 0.0554 |
| GCCCGAGCGGAAUACUCAATT against EDAR | inactive: 0.137 |
| GAACAGCUGGGAACCUUCATT against PPP2R1A | inactive: 0.973 |
| GCAAGACCGAAGUAAACUATT against GPX4 | active: -1.18 |
| GGUGGUAUCAACUUACAUATT against DDX10 | inactive: -0.968 |
| CCAUAUUCCUAUACACGAATT against CPB2 | inactive: -0.62 |
| AGCUUAAGCUGGGUGAGAUTT against ARF1 | inactive: -0.371 |
| GAUCCAUACUUGGAUGAUATT against PAIP1 | inactive: -0.0178 |
| UGAUUGCACGAACAGCAAATT against MED21 | active: -1.3 |
| CCACUUCUCCACACCUUGATT against NR4A1 | inactive: -0.207 |
| GGCCAGGUAUUUCAGGUCATT against KLK3 | inactive: 0.0191 |
| GCACCUGAGAGUCUUCUUUTT against SLC8A2 | inactive: 0 |
| CGGUACUACCCAAACGUCATT against APOBEC3D | inactive: -0.0215 |
| GAAUUGCUCCUAAUGUCAATT against MYB | inactive: 0.307 |
| CAUCCAUGCUGACAACUGUTT against LEPREL1 | inactive: 0.0654 |
| CCCUAUCCAUGUUCCAUGUTT against HDAC10 | inactive: -0.165 |
| GGAAUGUCAUCUACGAAGATT against ERO1L | inactive: -0.251 |
| GGUCUUUAGAGAUUCGAGATT against NPHP3 | inactive: 0.239 |
| GCAAACGGCUUAUGGGAUATT against RAD51L1 | inactive: 0 |
| GACUCAGACAUGCUACAUATT against LRRK1 | inactive: 0.257 |
| GGUUUCGUGUGGACCGUAATT against CADM4 | inactive: 0.16 |
